For one molecule, binding results are on record in publication PMC12493168.

The assay deals with T1, nuclear factor erythroid 2-related factor 2 (mouse (endogenous in primary adipocytes from mouse eWAT SVF)) (UniProt Q60795).
T1 sequence: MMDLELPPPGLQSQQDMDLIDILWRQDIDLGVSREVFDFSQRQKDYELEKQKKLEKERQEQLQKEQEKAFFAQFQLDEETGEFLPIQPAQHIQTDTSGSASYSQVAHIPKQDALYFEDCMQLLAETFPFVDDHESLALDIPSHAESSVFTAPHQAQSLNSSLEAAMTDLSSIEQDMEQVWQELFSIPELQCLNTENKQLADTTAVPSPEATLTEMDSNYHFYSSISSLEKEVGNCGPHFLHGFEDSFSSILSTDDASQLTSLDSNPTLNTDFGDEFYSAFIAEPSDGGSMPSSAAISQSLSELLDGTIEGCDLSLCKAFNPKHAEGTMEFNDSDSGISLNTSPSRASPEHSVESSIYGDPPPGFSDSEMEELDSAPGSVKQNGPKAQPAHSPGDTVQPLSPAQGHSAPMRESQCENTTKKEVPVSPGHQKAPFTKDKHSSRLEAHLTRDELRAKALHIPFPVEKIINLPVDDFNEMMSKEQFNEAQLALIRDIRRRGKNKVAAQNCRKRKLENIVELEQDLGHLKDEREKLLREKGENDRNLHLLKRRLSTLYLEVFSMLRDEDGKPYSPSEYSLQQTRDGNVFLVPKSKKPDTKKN
Nature of the assay: co-IP; lysate of mature adipocytes derived from WT and Serpina3c KO eWAT SVF; at least 1 mg total protein lysate, 2 µg primary antibody overnight at 4 °C, Protein A and Protein G agarose 3 h at 4 °C, washed three times, immunoblotting.

No constants are given. Whether binding was seen depends on the method and setting. Binding seen in cells or lysates may run through a third protein. Some results given as binding are weak or reduced against the parent protein; the word gives no strength.

B1: Serpina3c (protein, UniProt P29621 23-417)
chain: DGTLERDTLFHKDKENGTQLDSLTLASINTDFAFSLYKKLALKNPDTNIVFSPLSISAALAIVSLGAKGNTLEEILEGLNFNLTETPEADIHQGFGHLLQRLSHPGEQVQISTGSALFVEKHLQILAEFQEKARALYQAEAFTADFQQPLEATKLINDYVSNQTQRKIKGLISDLDTDTLMVLVNYIYFKGKWKMPFNPRDTFESEFYLDVKRSVKVPMMKIKTLTTPYFRDEELSCTVVELKYKGNASALFILPDQGRMQQVEASLQPETLRKWKNSLRPRKMGELYLPKFSISTDYSLKNILPELGIKEIFSKQADLSGITGTKDLIVSQMVHKAVLDVAETGTEGVAATGVNFRILSRRTSLWFNRTFLMVISHTDVQTTLFIAKITHPKRA
In the case of B1, the binding result is on record as “binds”.
